Test results taken from PubChem BioAssay AID248 (DTP/NCI, 2004).
The list shows only some results of the screen, not a fair sample: it is rich in T/C values a quarter to a half above the control, in often repeated tests (any T/C) and in doses without a T/C. Other doses and runs of a compound stand elsewhere. T/C gives the treated animals as a percentage of the vehicle group. Some doses have a count of surviving animals in place of a T/C: the source files T/C as zero there, which appears to mark a toxic dose or a test without result, not a measured value. Some doses without a T/C left all or most animals alive at the check, yet need not have been tolerated: survival well below the control is almost never listed, so the zero probably covers shortened survival too. Survivors were counted at the toxicity check, usually on the fifth day, unless a day is given; later deaths do not show. Schedule codes are those of the source, taken here to give the interval after Q, in days (D) or hours (H), and the number of doses after X. Some doses were run more than once; their values stand side by side, smallest first. Some schedules carry Z or #; the key to these is not given. Some structures stand for samples that the source files as different forms (salt, stereo form or complex); doses refer to the form tested. For survival time, the PubChem record calls one and a half times the control and up active, and a quarter to a half above the control has no call in these data; cut-offs in other NCI protocols can differ.

System: L1210 leukemia ip in BDF1 mice, survival T/C
Assay: NCI In Vivo Anticancer Drug Screen. Data for tumor model L1210 Leukemia (intraperitoneal) in B6D2F1 (BDF1) mice
Settings: T/C endpoint: mean survival time, higher T/C = longer survival
[1] = dose: 300.0 mg/kg/injection, schedule: Q01DX001 (ip), vehicle: saline
[2] = dose: 150.0 mg/kg/injection, schedule: Q01DX001 (ip), vehicle: saline
[3] = dose: 400.0 mg/kg/injection, schedule: Q04DX002 (ip), vehicle: Klucel (hydroxypropylcellulose) (HPC)
[4] = dose: 400.0 mg/kg/injection, schedule: Q01DX001 (ip), vehicle: Klucel (hydroxypropylcellulose) (HPC)

Question: How did the T/C (dose: 225.0 mg/kg/injection, schedule: Q03DX002 (ip), vehicle: saline with Tween-80) turn out when OC(CSc1ccccc1)(c1ccccc1)c1ccccc1 was run?
Answer: Its T/C is 128 % of control.

Question: Which T/C (dose: 1.25 mg/kg/injection, schedule: Q01DX009 (ip), vehicle: sodium bicarbonate) does the source give for Nc1nc(N)c2nc(COc3ccc(C(=O)NC(CCC(=O)O)C(=O)O)cc3)cnc2n1 (stereo not given) here?
Answer: The T/C was 129 and 132 % of control.

Question: What about the T/C (dose: 1.8 mg/kg/injection, schedule: Q01DX009 (ip), vehicle: sodium bicarbonate) of the same compound?
Answer: Its T/C is 127 % of control.

Question: And the survivor count (dose: 10.0 mg/kg/injection, schedule: Q01DX009 (ip), vehicle: sodium bicarbonate)?
Answer: The survivor count was 6 of 6.

Question: And the survivor count (dose: 20.0 mg/kg/injection, schedule: Q01DX009 (ip), vehicle: sodium bicarbonate)?
Answer: Its survivor count is 5 of 6 and 6 of 6.

Question: What about the survivor count (dose: 40.0 mg/kg/injection, schedule: Q01DX009 (ip), vehicle: sodium bicarbonate) of the same compound?
Answer: Its survivor count is 4 of 6.

Question: And the survivor count (dose: 80.0 mg/kg/injection, schedule: Q01DX009 (ip), vehicle: sodium bicarbonate)?
Answer: Its survivor count is 2 of 6.

Question: CCOC(=O)c1cnc(SC)nc1Nc1ccccc1Cl was tested. Which survivor count (dose: 400.0 mg/kg/injection, schedule: Q04DX003 (ip), vehicle: saline with Tween-80) did it give?
Answer: Its survivor count is 6 of 6.

Question: Cc1ccc(N=Nc2c(C)nn(C(N)=S)c2-c2ccccc2)cc1 was tested. Which survivor count [1] did it give?
Answer: Its survivor count is 5 of 6.

Question: With CC(c1ccccc1)n1cncc1C(=O)N(C)C (stereo not given) as the compound, how does the survivor count (dose: 400.0 mg/kg/injection, schedule: Q04DX003 (ip), vehicle: saline) read?
Answer: The survivor count was 0 of 6.

Question: CC(C)CNS(=O)(=O)c1ncnc2nc[nH]c12 was tested. Which survivor count (dose: 100.0 mg/kg/injection, schedule: Q01DX Z (ip), vehicle: carboxymethylcellulose (CMC)) did it give?
Answer: Its survivor count is 2 of 6.

Question: How did the survivor count (dose: 75.0 mg/kg/injection, schedule: Q01DX001 (ip), vehicle: saline) turn out when Nc1ccc(-c2ccc(Nc3cc(S(=O)(=O)O)c(N)c4c3C(=O)c3ccccc3C4=O)cc2)c(S(=O)(=O)O)c1 was run?
Answer: The survivor count was 2 of 6.

Question: What about the survivor count [2] of the same compound?
Answer: Its survivor count is 0 of 6.

Question: And the survivor count [1]?
Answer: Its survivor count is 0 of 6.

Question: With O=Cc1c(Cl)n(C(=O)c2ccccc2Cl)c2ccccc12 as the compound, how does the survivor count [3] read?
Answer: The survivor count was 3 of 3.

Question: How did the survivor count [4] turn out when CCNc1nc(C)c2nc(C(=O)NCc3ccccc3)c(=O)n(CC)c2n1 was run?
Answer: Its survivor count is 1 of 3.

Question: COc1ccc(N2C(=O)CC(Cl)C2=O)cc1 (stereo not given) was tested. Which survivor count (dose: 175.0 mg/kg/injection, schedule: Q04DX003 (ip), vehicle: saline with Tween-80) did it give?
Answer: The survivor count was 0 of 6.

Question: And the survivor count (dose: 350.0 mg/kg/injection, schedule: Q04DX003 (ip), vehicle: saline with Tween-80)?
Answer: The survivor count was 0 of 6.

Question: With c1ccc(N=C(Nc2ccccc2)c2ccccc2)cc1 as the compound, how does the survivor count [3] read?
Answer: Its survivor count is 2 of 3.

Question: Which results are given for CC(=O)/C(=N\N=C(N)N)c1ccccc1?
Answer: survivor count (dose: 15.0 mg/kg/injection, schedule: Q01DX Z (ip), vehicle: saline): 0 of 6; survivor count (dose: 30.0 mg/kg/injection, schedule: Q01DX Z (ip), vehicle: saline): 0 of 6; survivor count (dose: 30.0 mg/kg/injection, schedule: Q01DX Z (oral), vehicle: other): 4 of 6; survivor count (dose: 60.0 mg/kg/injection, schedule: Q01DX Z (ip), vehicle: saline): 0 of 6; survivor count (dose: 120.0 mg/kg/injection, schedule: Q01DX Z (ip), vehicle: saline): 0 of 6

Question: Which survivor count (dose: 800.0 mg/kg/injection, schedule: Q01DX009 (ip), vehicle: acetone) does the source give for COc1ccc(/C=N/NC(N)=S)cc1 here?
Answer: Its survivor count is 0 of 6.

Question: Which results are given for Cc1cc(NC(=O)CCc2ccc(N3C(N)=NC(N)=NC3(C)C)cc2)ccc1S(=O)(=O)F?
Answer: T/C (dose: 27.0 mg/kg/injection, schedule: Q## X018 (ip), vehicle: saline): 126 % of control; T/C (dose: 41.0 mg/kg/injection, schedule: Q## X018 (ip), vehicle: saline): 128 % of control; T/C (dose: 62.0 mg/kg/injection, schedule: Q## X018 (ip), vehicle: saline): 129 and 148 % of control; T/C (dose: 62.5 mg/kg/injection, schedule: Q12HX018 (ip), vehicle: acetone): 125 % of control; T/C (dose: 64.0 mg/kg/injection, schedule: Q03HX024 (ip), vehicle: other): 129 % of control; survivor count (dose: 125.0 mg/kg/injection, schedule: Q12HX018 (ip), vehicle: acetone): 0 of 6; T/C (dose: 125.0 mg/kg/injection, schedule: Q## X018 (ip), vehicle: saline): 135 % of control; survivor count (dose: 128.0 mg/kg/injection, schedule: Q01DX001 (ip), vehicle: other): 4 of 10; survivor count (dose: 128.0 mg/kg/injection, schedule: Q01DX009 (ip), vehicle: other): 0 of 10; survivor count (dose: 128.0 mg/kg/injection, schedule: Q03HX008 (ip), vehicle: other): 6 of 10; survivor count (dose: 128.0 mg/kg/injection, schedule: Q04DX003 (ip), vehicle: other): 4 of 10; survivor count (dose: 200.0 mg/kg/injection, schedule: Q01DX001 (ip), vehicle: Klucel (hydroxypropylcellulose) (HPC)): 0 of 6; survivor count (dose: 250.0 mg/kg/injection, schedule: Q12HX018 (ip), vehicle: acetone): 0 of 6; survivor count (dose: 250.0 mg/kg/injection, schedule: Q## X018 (ip), vehicle: saline): 3 of 6; survivor count (dose: 256.0 mg/kg/injection, schedule: Q01DX001 (ip), vehicle: other): 0 of 10; survivor count (dose: 256.0 mg/kg/injection, schedule: Q01DX009 (ip), vehicle: other): 0 of 10; survivor count (dose: 256.0 mg/kg/injection, schedule: Q04DX003 (ip), vehicle: other): 3 of 10; survivor count [4]: 0 of 6; survivor count (dose: 500.0 mg/kg/injection, schedule: Q## X018 (ip), vehicle: saline): 0 of 6; survivor count (dose: 512.0 mg/kg/injection, schedule: Q01DX001 (ip), vehicle: other): 0 of 10; survivor count (dose: 512.0 mg/kg/injection, schedule: Q04DX003 (ip), vehicle: other): 0 of 10; survivor count (dose: 1024.0 mg/kg/injection, schedule: Q01DX001 (ip), vehicle: other): 0 of 10

Question: Which survivor count [2] does the source give for [O-]c1nn(-c2ccccc2)c2cccc[n+]12 here?
Answer: Its survivor count is 2 of 6.

Question: What about the survivor count [1] of the same compound?
Answer: The survivor count was 0 of 6.

Question: Which survivor count (dose: 200.0 mg/kg/injection, schedule: Q04DX003 (ip), vehicle: Klucel (hydroxypropylcellulose) (HPC)) does the source give for COc1ccc(OC)c(NC(=O)N(CCO)C2CCCCC2)c1 here?
Answer: The survivor count was 6 of 6.
